{
  "sequences": {"note": "By UniProt entry, the sequences of proteins in these tests, tags left out. Where a name states a change or a piece, a line headed by the entry shows the natural chain unless it says otherwise.", "UniProt Q80TV8": "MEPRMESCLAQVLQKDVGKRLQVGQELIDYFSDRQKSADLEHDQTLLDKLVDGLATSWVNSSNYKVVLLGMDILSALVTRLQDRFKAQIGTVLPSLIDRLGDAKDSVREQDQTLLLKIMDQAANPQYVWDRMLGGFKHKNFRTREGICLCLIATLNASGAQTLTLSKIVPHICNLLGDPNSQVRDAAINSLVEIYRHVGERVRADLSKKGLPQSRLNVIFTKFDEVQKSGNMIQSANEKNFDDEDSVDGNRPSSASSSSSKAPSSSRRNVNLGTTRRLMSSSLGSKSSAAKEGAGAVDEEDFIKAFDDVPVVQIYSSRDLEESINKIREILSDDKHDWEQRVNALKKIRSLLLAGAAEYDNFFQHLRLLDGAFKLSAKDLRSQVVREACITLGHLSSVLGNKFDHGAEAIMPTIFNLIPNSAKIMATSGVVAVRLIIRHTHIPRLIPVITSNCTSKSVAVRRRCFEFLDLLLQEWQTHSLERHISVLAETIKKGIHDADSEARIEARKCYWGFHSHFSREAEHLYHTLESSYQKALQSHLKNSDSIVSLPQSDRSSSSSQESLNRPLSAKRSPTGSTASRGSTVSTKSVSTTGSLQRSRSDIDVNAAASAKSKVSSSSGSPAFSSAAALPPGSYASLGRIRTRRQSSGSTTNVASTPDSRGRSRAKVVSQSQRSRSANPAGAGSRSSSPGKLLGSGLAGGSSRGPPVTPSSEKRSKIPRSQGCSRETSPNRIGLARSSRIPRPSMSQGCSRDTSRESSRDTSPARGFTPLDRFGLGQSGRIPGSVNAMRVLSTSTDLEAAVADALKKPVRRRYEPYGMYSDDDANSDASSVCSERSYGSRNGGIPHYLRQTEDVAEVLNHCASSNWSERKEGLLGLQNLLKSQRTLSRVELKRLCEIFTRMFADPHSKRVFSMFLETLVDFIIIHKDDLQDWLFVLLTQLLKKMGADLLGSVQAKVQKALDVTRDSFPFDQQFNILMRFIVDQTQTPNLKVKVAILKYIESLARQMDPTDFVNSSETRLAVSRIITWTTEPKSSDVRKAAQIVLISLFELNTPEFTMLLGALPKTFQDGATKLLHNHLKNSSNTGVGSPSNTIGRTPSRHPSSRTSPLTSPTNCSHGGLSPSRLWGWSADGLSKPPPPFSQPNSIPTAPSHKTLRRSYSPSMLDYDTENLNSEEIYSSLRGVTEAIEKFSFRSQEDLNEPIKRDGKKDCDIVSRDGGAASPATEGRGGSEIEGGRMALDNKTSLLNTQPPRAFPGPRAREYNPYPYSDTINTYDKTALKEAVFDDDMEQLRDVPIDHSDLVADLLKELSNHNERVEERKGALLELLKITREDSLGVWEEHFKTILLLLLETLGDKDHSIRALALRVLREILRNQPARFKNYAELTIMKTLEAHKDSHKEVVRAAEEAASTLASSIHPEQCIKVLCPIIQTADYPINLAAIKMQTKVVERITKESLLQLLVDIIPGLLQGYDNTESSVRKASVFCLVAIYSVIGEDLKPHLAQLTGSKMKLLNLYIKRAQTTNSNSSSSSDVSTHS", "UniProt Q6ZPF4, whole entry": "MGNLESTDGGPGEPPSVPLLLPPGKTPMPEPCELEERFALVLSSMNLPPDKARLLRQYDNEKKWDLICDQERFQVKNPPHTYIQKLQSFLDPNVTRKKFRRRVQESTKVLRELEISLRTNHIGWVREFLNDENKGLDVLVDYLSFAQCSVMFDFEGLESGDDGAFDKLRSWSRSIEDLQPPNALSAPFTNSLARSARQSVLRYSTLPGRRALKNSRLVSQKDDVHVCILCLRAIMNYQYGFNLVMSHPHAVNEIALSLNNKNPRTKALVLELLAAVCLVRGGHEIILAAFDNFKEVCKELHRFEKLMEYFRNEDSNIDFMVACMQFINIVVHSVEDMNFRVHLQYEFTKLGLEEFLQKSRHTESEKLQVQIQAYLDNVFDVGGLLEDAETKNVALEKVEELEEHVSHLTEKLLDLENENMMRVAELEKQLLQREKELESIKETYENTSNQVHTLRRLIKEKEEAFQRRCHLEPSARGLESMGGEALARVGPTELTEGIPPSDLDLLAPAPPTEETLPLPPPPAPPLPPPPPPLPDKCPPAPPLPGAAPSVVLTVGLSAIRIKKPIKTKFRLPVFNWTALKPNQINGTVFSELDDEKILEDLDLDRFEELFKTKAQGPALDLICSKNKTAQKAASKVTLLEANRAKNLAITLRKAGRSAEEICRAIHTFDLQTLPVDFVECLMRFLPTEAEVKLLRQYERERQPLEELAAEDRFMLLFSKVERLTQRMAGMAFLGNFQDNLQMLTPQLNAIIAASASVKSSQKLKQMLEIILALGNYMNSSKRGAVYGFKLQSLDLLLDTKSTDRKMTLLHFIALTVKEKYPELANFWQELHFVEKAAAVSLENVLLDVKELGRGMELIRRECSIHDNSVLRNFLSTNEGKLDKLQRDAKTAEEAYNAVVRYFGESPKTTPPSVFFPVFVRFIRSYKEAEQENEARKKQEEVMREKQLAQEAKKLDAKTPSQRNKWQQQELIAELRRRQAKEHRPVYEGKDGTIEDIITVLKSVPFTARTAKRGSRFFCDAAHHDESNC", "UniProt Q6ZPY5": "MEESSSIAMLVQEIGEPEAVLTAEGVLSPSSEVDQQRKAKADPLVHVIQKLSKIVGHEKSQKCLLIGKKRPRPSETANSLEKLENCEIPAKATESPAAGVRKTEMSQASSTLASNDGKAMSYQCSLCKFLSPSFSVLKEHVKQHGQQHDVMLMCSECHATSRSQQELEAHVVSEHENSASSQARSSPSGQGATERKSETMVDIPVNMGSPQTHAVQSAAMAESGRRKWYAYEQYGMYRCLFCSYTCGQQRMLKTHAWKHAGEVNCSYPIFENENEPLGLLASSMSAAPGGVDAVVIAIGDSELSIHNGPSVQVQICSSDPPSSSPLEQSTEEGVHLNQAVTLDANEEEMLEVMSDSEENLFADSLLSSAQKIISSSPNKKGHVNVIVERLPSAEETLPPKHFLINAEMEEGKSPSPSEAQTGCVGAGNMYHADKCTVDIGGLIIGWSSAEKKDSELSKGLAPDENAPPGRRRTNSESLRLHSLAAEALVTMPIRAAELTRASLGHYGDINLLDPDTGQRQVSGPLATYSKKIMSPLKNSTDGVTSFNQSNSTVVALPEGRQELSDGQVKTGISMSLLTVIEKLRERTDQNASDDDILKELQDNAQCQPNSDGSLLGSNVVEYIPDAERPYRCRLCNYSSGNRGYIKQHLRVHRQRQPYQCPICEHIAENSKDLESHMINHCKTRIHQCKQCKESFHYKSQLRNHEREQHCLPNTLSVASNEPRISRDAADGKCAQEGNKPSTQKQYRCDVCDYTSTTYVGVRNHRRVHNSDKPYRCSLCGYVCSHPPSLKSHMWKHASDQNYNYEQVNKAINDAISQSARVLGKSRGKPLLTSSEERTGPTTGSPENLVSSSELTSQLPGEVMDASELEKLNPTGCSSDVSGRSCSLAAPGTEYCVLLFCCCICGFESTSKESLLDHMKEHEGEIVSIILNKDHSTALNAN", "UniProt Q6ZQL4": "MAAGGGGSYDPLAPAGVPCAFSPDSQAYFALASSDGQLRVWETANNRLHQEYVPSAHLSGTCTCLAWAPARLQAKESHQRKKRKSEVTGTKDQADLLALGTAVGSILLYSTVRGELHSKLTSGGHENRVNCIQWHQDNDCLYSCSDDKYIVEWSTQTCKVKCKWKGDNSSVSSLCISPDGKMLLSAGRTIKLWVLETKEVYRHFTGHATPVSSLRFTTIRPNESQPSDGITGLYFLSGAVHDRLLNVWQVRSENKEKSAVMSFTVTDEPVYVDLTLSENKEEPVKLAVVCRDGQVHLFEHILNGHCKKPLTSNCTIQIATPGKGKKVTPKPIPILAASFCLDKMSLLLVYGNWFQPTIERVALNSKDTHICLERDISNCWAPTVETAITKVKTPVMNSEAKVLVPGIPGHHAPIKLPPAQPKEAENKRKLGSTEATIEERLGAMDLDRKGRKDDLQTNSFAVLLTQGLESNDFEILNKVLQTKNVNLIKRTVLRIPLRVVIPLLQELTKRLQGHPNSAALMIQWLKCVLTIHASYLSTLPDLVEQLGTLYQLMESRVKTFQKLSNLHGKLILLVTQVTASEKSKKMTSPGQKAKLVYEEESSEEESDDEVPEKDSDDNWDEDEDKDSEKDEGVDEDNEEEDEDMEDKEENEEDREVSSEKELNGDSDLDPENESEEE", "UniProt Q80U56": "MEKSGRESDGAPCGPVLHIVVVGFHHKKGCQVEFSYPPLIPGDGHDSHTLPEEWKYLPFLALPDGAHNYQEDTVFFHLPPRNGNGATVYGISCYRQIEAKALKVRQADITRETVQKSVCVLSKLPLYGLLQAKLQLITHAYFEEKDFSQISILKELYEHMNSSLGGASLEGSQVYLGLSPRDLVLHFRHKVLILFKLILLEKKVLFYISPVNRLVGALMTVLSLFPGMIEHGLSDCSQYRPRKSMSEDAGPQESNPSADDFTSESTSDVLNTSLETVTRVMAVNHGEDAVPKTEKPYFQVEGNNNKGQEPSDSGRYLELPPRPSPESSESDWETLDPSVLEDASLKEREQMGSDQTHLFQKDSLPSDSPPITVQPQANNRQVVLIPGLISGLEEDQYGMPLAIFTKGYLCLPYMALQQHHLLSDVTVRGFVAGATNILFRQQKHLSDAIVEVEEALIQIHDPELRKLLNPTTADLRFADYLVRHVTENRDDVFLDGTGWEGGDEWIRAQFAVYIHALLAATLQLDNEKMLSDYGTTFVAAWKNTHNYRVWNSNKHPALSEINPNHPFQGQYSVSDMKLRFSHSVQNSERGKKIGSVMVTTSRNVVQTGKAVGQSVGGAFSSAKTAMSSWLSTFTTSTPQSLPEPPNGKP", "UniProt Q80U28, whole entry, looked up": "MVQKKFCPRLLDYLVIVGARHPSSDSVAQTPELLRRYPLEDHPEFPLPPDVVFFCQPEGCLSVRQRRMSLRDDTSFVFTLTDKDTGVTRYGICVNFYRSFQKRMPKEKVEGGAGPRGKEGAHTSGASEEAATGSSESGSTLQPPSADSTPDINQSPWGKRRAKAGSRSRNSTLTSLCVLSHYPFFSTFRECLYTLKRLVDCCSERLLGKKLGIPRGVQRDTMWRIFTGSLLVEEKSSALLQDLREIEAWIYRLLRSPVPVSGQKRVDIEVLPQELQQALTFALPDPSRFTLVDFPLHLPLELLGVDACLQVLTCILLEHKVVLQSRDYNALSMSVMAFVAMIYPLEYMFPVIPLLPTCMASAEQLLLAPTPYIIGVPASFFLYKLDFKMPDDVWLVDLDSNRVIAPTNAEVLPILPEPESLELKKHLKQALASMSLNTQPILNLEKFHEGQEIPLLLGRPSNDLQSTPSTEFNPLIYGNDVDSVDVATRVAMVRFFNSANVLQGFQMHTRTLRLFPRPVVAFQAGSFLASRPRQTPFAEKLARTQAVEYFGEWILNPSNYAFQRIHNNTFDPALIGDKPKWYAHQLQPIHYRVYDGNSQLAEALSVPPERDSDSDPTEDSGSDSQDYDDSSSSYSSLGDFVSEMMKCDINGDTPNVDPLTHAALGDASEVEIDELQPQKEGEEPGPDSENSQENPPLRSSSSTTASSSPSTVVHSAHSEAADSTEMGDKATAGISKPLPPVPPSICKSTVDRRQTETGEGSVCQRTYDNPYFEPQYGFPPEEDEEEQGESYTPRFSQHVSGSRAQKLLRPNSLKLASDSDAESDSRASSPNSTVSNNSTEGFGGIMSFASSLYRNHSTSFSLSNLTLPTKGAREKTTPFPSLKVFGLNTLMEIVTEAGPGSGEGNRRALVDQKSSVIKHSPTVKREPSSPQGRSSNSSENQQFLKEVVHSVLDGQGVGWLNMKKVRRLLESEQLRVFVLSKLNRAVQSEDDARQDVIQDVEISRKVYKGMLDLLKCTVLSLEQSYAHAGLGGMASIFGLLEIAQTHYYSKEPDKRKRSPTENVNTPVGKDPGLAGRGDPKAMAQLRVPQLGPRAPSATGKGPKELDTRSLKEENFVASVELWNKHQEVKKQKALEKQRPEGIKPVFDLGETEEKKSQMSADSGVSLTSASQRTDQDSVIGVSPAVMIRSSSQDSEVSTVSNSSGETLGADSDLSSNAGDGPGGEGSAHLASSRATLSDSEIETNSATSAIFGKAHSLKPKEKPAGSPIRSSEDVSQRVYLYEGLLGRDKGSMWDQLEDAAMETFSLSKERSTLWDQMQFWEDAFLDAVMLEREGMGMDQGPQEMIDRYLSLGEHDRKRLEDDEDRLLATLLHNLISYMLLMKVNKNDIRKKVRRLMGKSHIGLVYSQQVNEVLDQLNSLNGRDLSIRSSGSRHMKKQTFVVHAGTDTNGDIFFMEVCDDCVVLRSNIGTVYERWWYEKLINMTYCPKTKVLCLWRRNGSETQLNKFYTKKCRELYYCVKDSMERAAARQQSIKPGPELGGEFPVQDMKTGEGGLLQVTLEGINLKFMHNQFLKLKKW"},
  "source": "the supplement of paper PMC12819154",
  "about": "“High-throughput peptide-centric local stability assay extends protein–ligand identification to membrane proteins, tissues and bacteria” (Nature Structural & Molecular Biology, 2025)",
  "note": "This is one part of the list. Small differences around the control level are noise.",
  "data": [
    {"compound": "CN[C@@H]1C[C@H]2O[C@@](C)([C@@H]1OC)n1c3ccccc3c3c4c(c5c6ccccc6n2c5c31)C(=O)NC4 [staurosporine]", "test": "log2 fold change of tryptic peptide abundance, ligand vs vehicle (limited proteolysis) (log2 ratio); higher = more trypsin-susceptible (destabilized)", "conditions": "ligand concentration: 20 uM; sample: mouse liver crude lysate; replicate design: treated separately", "values": [
      {"target": "UniProt Q80TV8 (peptide sequence: LLHNHLK, peptide start residue: 1073)", "log2 fold change": -0.398},
      {"target": "UniProt Q6ZPJ3 (peptide sequence: GLQEGYENSR, peptide start residue: 1086)", "log2 fold change": 0.471},
      {"target": "UniProt Q6ZPF4 (peptide sequence: LGLEEFLQK, peptide start residue: 350)", "log2 fold change": -0.304},
      {"target": "UniProt Q6ZPY5 (peptide sequence: GKPLLTSSEER, peptide start residue: 827)", "log2 fold change": 0.18},
      {"target": "UniProt Q70FJ1 (peptide sequence: NLGPDTDHAALQK, peptide start residue: 3578)", "log2 fold change": -0.816},
      {"target": "UniProt Q80TR8 (peptide sequence: GLGETATVLTR, peptide start residue: 861)", "log2 fold change": 0.308},
      {"target": "UniProt Q80VH0 (peptide sequence: SQNWNDLNARPETR, peptide start residue: 541)", "log2 fold change": -0.262},
      {"target": "UniProt Q6ZQL4 (peptide sequence: LGAMDLDRK, peptide start residue: 441)", "log2 fold change": 0.136},
      {"target": "UniProt Q80U56 (peptide sequence: EQMGSDQTHLFQK, peptide start residue: 349)", "log2 fold change": -0.186},
      {"target": "UniProt Q80U28 (peptide sequence: LASDSDAESDSR, peptide start residue: 815)", "log2 fold change": -0.408}
    ]}
  ]
}
